Test results as given in paper PMC6177136, “Hybrid topoisomerase I and HDAC inhibitors as dual action anticancer agents” (PLoS ONE, 2018).

Legend:
Type in all cases: cell-based
REC-1 = test: Cytotoxicity assay (MTT, 72 h) REC-1; conditions: Homo sapiens, Rec1, read-out: IC50 ± SD REC-1
Procedure: (§1) Human tumor cells were seeded in 96-well cell culture plastic plates, allowed to attach, and exposed to scalar concentrations of the test compounds.

MAVER-2 = test: Cytotoxicity assay (MTT, 72 h) MAVER-2; conditions: Homo sapiens, read-out: IC50 ± SD MAVER-2
Procedure: as §1

HeLa = test: Cytotoxicity assay (SRB, 72 h) HeLa; conditions: Homo sapiens, read-out: IC50 ± SD HeLa
Procedure: as §1
(§2) The antiproliferative activity was evaluated on a series of human tumor cell lines (NCI-H460: non small cell lung cancer; CAPAN 1: human pancreatic ductal adenocarcinoma; A431: human epidermoid carcinoma; HeLa: human epithelioid cervix carcinoma; HT29: human colon adenocarcinoma; DU145: human prostate carcinoma; HepG2: human liver hepatocellular carcinoma; A2780: human ovarian carcinoma; A2780-Dox: human doxorubicin-resistant ovarian carcinoma). The activity was assessed after 72 h with the SRB assay.

MM404 = test: Cytotoxicity assay, primary mesothelioma MM404; conditions: Homo sapiens; epithelioid, 72 h, SBR assay; read-out: IC50 ± SD MM404
KM-H2 = test: Cytotoxicity assay (MTT, 72 h) KM-H2; conditions: Homo sapiens, read-out: IC50 ± SD KM-H2
Procedure: as §1

K 562 = test: Cytotoxicity assay (MTT, 72 h) K 562; conditions: Homo sapiens, K562, read-out: IC50 ± SD K 562
Procedure: as §1

MINO = test: Cytotoxicity assay (MTT, 72 h) MINO; conditions: Homo sapiens, read-out: IC50 ± SD MINO
Procedure: as §1

H929 = test: Cytotoxicity assay (MTT, 72 h) H929; conditions: Homo sapiens, NCI-H929, read-out: IC50 ± SD H929
Procedure: as §1

[1] = tested on: hematologic cancer cell lines; test: Screening on hematologic cancer cell lines (summary); conditions: Homo sapiens, read-out: IC50 across hematologic cancer cell lines (Tables 5 and 6); span over the cell line panel, 72 h, MTT assay
Procedure: as §1
To assess the antitumor potential of compound 3d, a large screening on hematologic cancer cell lines was carried out (Tables 5 and 6).

A2780-Dx = test: Cytotoxicity assay (SRB, 72 h) A2780-Dx; conditions: Homo sapiens, multidrug-resistant ovarian carcinoma, read-out: IC50 ± SD A2780-Dx
NCI-H460 = test: Cytotoxicity assay (SRB, 72 h) NCI-H460; conditions: Homo sapiens
Procedure: as §1, §2

MM472 = test: Cytotoxicity assay, primary mesothelioma MM472; conditions: Homo sapiens; sarcomatoid, 72 h, SBR assay; read-out: IC50 ± SD MM472
ARH-77 = test: Cytotoxicity assay (MTT, 72 h) ARH-77; conditions: Homo sapiens, read-out: IC50 ± SD ARH-77
Procedure: as §1

[2] = tested on: series of human tumor cell lines; test: Antiproliferative activity, series of human tumor cell lines (summary); conditions: span over the cell line panel, 72 h, SRB assay, read-out: IC50 across the human tumor cell lines of Table 3
Procedure: as §1, §2

MM487 = test: Cytotoxicity assay, primary mesothelioma MM487; conditions: Homo sapiens, biphasic, 72 h, SBR assay, read-out: IC50 ± SD MM487
MV4-11 = test: Cytotoxicity assay (MTT, 72 h) MV4-11; conditions: Homo sapiens, read-out: IC50 ± SD MV4-11
Procedure: as §1

U-2932 = test: Cytotoxicity assay (MTT, 72 h) U-2932; conditions: Homo sapiens, U2932, read-out: IC50 ± SD U-2932
Procedure: as §1

MM473 = test: Cytotoxicity assay, primary mesothelioma MM473; conditions: Homo sapiens, epithelioid, 72 h, SBR assay, read-out: IC50 ± SD MM473
NB4 = test: Cytotoxicity assay (MTT, 72 h) NB4; conditions: Homo sapiens, NB-4, read-out: IC50 ± SD NB4
Procedure: as §1

THP1 = test: Cytotoxicity assay (MTT, 72 h) THP1; conditions: Homo sapiens, THP-1, read-out: IC50 ± SD THP1
Procedure: as §1

Jurkat-cp = test: Cytotoxicity assay (MTT, 72 h) Jurkat-cp; conditions: Homo sapiens, read-out: IC50 ± SD Jurkat-cp
Procedure: as §1

MM288 = test: Cytotoxicity assay, primary mesothelioma MM288; conditions: Homo sapiens; epithelioid, 72 h, SBR assay; read-out: IC50 ± SD MM288
MM481 = test: Cytotoxicity assay, primary mesothelioma MM481; conditions: Homo sapiens; epithelioid, 72 h, SBR assay; read-out: IC50 ± SD MM481
A431 = test: Cytotoxicity assay (SRB, 72 h) A431; conditions: Homo sapiens, A-431, read-out: IC50 ± SD A431
Procedure: as §1, §2

MM317 = test: Cytotoxicity assay, primary mesothelioma MM317; conditions: Homo sapiens; epithelioid, 72 h, SBR assay; read-out: IC50 ± SD MM317
Z-138 = test: Cytotoxicity assay (MTT, 72 h) Z-138; conditions: Homo sapiens, read-out: IC50 ± SD Z-138
Procedure: as §1

DU145 = test: Cytotoxicity assay (SRB, 72 h) DU145; conditions: Homo sapiens, DU-145, read-out: IC50 ± SD DU145
Procedure: as §1, §2

MM491 = test: Cytotoxicity assay, primary mesothelioma MM491; conditions: Homo sapiens; biphasic, 72 h, SBR assay; read-out: IC50 ± SD MM491
MM432 = test: Cytotoxicity assay, primary mesothelioma MM432; conditions: Homo sapiens; sarcomatoid, 72 h, SBR assay; read-out: IC50 ± SD MM432
JECO-1 = test: Cytotoxicity assay (MTT, 72 h) JECO-1; conditions: Homo sapiens, read-out: IC50 ± SD JECO-1
Procedure: as §1

U937 = test: Cytotoxicity assay (MTT, 72 h) U937; conditions: Homo sapiens, U-937, read-out: IC50 ± SD U937
Procedure: as §1

RAMOS = test: Cytotoxicity assay (MTT, 72 h) RAMOS; conditions: Homo sapiens, read-out: IC50 ± SD RAMOS
Procedure: as §1

SMILES: O=C(CCCCCCC(=O)Nc1ccccc1)NO [SAHA, suberoylanilide hydroxamic acid]
- IC50 (REC-1): 0.94 ± 0.2 µM
- IC50 (MAVER-2): 5.4 ± 1.2 µM
- IC50 (HeLa): 2.7 ± 0.2 µM
- IC50 (MM404): 8.8 ± 1.2 µM
- IC50 (KM-H2): 1.2 ± 0.2 µM
- IC50 (K 562): 1.53 ± 0.4 µM
- IC50 (MINO): 1.1 ± 0.3 µM
- IC50 (H929): 0.56 ± 0.07 µM
- IC50 [1]: 0.6 to 9 µM
- IC50 (A2780-Dx): 3.3 ± 0.6 µM
- IC50 (NCI-H460; NCI-H460, 72 h, SRB assay, read-out: IC50 ± SD NCI-H460): 5 ± 0.2 µM
- IC80 (NCI-H460; NCI-H460 cells): ~5 µM
- IC50 (MM472): 4.6 ± 0.8 µM
- IC50 (ARH-77): 3.9 ± 0.5 µM
- IC50 [2]: > 0.9 µM
- IC50 (MM487): 7.4 ± 0.4 µM
- IC50 (MV4-11): 3.84 ± 0.8 µM
- IC50 (U-2932): 1.1 ± 0.2 µM
- IC50 (MM473): 8.5 ± 0.4 µM
- IC50 (NB4): 3.3 ± 0.6 µM
- IC50 (THP1): 3.9 ± 1.4 µM
- IC50 (Jurkat-cp): 1.99 ± 0.2 µM
- IC50 (MM288): 3.8 ± 0.2 µM
- IC50 (MM481): 11.5 ± 0.4 µM
- IC50 (A431): 3.5 ± 0.1 µM
- IC50 (MM317): 11.2 ± 0.9 µM
- IC50 (Z-138): 0.7 ± 0.1 µM
- IC50 (DU145): 0.87 ± 0.03 µM
- IC50 (MM491): 10.7 ± 0.4 µM
- IC50 (MM432): 6.9 ± 1 µM
- IC50 (JECO-1): 2.6 ± 0.7 µM
- IC50 (U937): 1.62 ± 0.3 µM
- IC50 (RAMOS): 3.9 ± 0.7 µM
